Experimental data published in PubChem BioAssay AID662 (National Center for Advancing Translational Sciences (NCATS), 2007).
The list shows a part of the results. Further columns of the screen follow, without active or inactive calls. The list favours compounds with an active or inconclusive main result. Words in brackets tell the shape of the fitted curve; partial curves, single points and poor fits give uncertain potencies.

assay: Cell signaling CRE-BLA (Fsk stim); settings: CHO CRE-bla reporter (cAMP response element driving beta-lactamase), forskolin EC10, beta-lactamase ratio; measured here: 460 nm blue channel
Procedure, shortened: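 CRE-bla CHO reporter cells treated with compound titration plus EC10 NKH 477 (water-soluble forskolin), incubated 3 h at 37 °C; CCF4 loading 2 h at room temperature, 460/530 nm emission ratio read, AC50 values derived for positive or negative modulators.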

SMILES | AC50
O=C(CC(=O)N1CCN(c2ccccn2)CC1)Nc1ccc2nc3n(c(=O)c2c1)CCCCC3 | 6.31 µM [rising, partial curve]
COc1cc2cc(Oc3ccc4ccc(=O)oc4c3)c(=O)oc2cc1O | 25.1 µM [rising, partial curve]
CCOC(=O)Cn1c(CN2CCN(c3cccc(Cl)c3)CC2)nc2c1c(=O)[nH]c(=O)n2C | 10 µM [rising, partial curve]
Cc1nn(C)c(C)c1S(=O)(=O)NCc1cccs1 | 3.98 µM [falling, full curve, poor fit]
COc1cc2c(cc1O)CCC1C2CC[C@@]2(C)C1CC[C@@H]2O (stereo partly drawn) | 12.6 µM [rising, partial curve]
C=CCNS(=O)(=O)c1ncnc2nc[nH]c12 | 0.000794 µM [falling, full curve, poor fit]
O=C(c1ccccc1)c1ccc2nc[nH]c2c1 | 2 µM [falling, partial curve]
O=C(O)C1C2C=CC(C2)C1C(=O)N1CCOCC1 (stereo not drawn) | 0.316 µM [falling, partial curve]
Cc1ccc(C2C(C#N)=C(N)Oc3nc(-c4ccccc4)[nH]c32)o1 (stereo not drawn) | 20 µM [falling, partial curve, poor fit]
c1ccc(N2CCN(c3ccccc3)C2c2cccs2)cc1 | 25.1 µM [falling, single point]
COc1ccccc1-c1nc(-c2ccc(C)nc2OC)no1 | 1.26 µM [rising, full curve, poor fit]
CCn1nnc(-c2ccccc2NC(=O)c2cc(OC)cc(OC)c2)n1 | 3.16 µM [rising, full curve]
c1cncc(CNc2nc(-c3ccoc3)nc3ccccc23)c1 | 3.98 µM [rising, full curve]
CS(=O)(=O)Nc1cccc(-c2nc(Nc3ccncc3)c3ccccc3n2)c1 | 5.01 µM [rising, partial curve]
Cc1sc2nc3c4ccccc4c(NCc4ccco4)nn3c(=O)c2c1C | 25.1 µM [falling, single point]
Cn1cc(-c2nc3cnc(N4CCNCC4)nc3n(-c3ccccc3)c2=O)c2ccccc21 | 10 µM [rising, partial curve]
COCCCNc1nc2ccccc2nc1NS(=O)(=O)c1cccs1 | 15.8 µM [rising, single point]
CN(C)CCCN1c2ccccc2Sc2ccccc21 | 12.6 µM [falling, single point]
CCCCN(CCCNC(=O)C1CCN(S(=O)(=O)CC)CC1)c1ccccc1 | 25.1 µM [falling, single point]
Cn1c(=O)c2c(nc(SCc3cccnc3)n2Cc2ccccc2)n(C)c1=O | 10 µM [rising, partial curve]
Cc1ccc(C(=O)N2CCCC(c3nc4c(nnn4Cc4ccccc4)c(=O)[nH]3)C2)cc1 (stereo not drawn) | 12.6 µM [rising, partial curve]
CCOC(=O)c1c(NC(=O)C(F)(OC)C(F)(F)F)sc2c1CCN(C)C2 (stereo not drawn) | 10 µM [rising, partial curve]

Two of the compounds above, in CSV form.
SMILES,AC50
CCOC(=O)Cn1c(CN2CCN(c3cccc(Cl)c3)CC2)nc2c1c(=O)[nH]c(=O)n2C,"10 µM [rising, partial curve]"
Cc1nn(C)c(C)c1S(=O)(=O)NCc1cccs1,"3.98 µM [falling, full curve, poor fit]"

(further entries)

SMILES | AC50
O=C(c1ccco1)N1CCN(C(=O)c2snc3ccc(Cl)cc23)CC1 | 5.01 µM [falling, single point]
Cc1cccc(-n2ncc3c(NCc4cccs4)ncnc32)c1 | 25.1 µM [rising, single point]
CCOC(=O)C1=C(C)NC(=O)NC1c1ccc(OC(=O)c2ccco2)c(OC)c1 (stereo not drawn) | 1 µM [rising, partial curve, poor fit]
CCOc1cccc(Oc2ccc(C(F)(F)F)cn2)c1 | 25.1 µM [rising, single point]
COc1ccc(-n2c(=O)c(C)nc3cnc(Oc4ccccc4)nc32)cc1 | 2.51 µM [rising, full curve]
COC(=O)c1ccc2ccn(CC(=O)NC(C)C)c2c1 | 0.00316 µM [falling, full curve, poor fit]
Cc1cc(C(=O)Nc2c(C)nn(Cc3c(Cl)cccc3Cl)c2C)no1 | 0.0251 µM [falling, partial curve, poor fit]
COc1ccc(CCNc2ncnc3c2oc2ccccc23)cc1OC | 12.6 µM [falling, single point]
Cc1nc2cnc(N3CCNCC3)nc2n(C2CC2)c1=O | 12.6 µM [rising, partial curve]
Cc1ccc2cc(CN(Cc3ccco3)C(=O)c3cccs3)c(=O)[nH]c2c1 | 6.31 µM [falling, partial curve]
COc1ccc(-c2nnn(CC(=O)c3c[nH]c4ccccc34)n2)cc1OC | 12.6 µM [rising, partial curve]
COc1ccc(N2CCN(Cc3nc4c(c(=O)n(C)c(=O)n4C)n3Cc3cccc(C)c3)CC2)cc1 | 12.6 µM [rising, partial curve]
CCCn1c(-c2cccs2)nc2ccccc21 | 12.6 µM [rising, partial curve]
CN1CCN(c2ncc3nc(-c4ccc(Cl)cc4)c(=O)n(-c4ccccc4)c3n2)CC1 | 1.58 µM [rising, full curve]
CCN1C2=C(C(=O)CCC2)C(c2ccc(O)c(Br)c2)C2=C1CCCC2=O | 10 µM [rising, partial curve]
COc1ccc(-c2n[nH]c(C)c2-c2ccc(OC)c(OC)c2)c(O)c1 | 1.26 µM [rising, full curve]
COc1ccc(N(CC(=O)Nc2ccc3c(c2)OCO3)S(=O)(=O)c2ccccc2)c(OC)c1 | 10 µM [falling, partial curve]
CC(C)(C)C(=O)Cn1c(=N)n(Cc2ccccc2)c2ccccc21 | 25.1 µM [falling, partial curve]
CCn1cc(C(=O)Nc2cc3c(cc2NC(C)=O)OCCO3)c(=O)c2ccc(C)nc21 | 2 µM [rising, single point]
CCCCCOC(=O)Cn1c(SCC(=O)Nc2ccccc2)nc2c1c(=O)[nH]c(=O)n2C | 12.6 µM [rising, single point]
Cc1ccc(NC(=O)CSc2nnc(-c3ccccn3)n2C)cc1 | 2.51 µM [falling, partial curve]
